Assay results taken from patent US20040115237A1, “Biocompatible composite” (priority 2001, published 2004).
At least one compound was matched to its structure with a doubt left.

Test system: Human Aortic Vascular SMC cell line
Test: SMC growth inhibition after drug exposure, MTT assay and Neutral Red assay
Format: cell-based
Conditions: high doses; analysed after 72 hours
Experimental: The Human Aortic Vascular SMC cell line was investigated. 96 well plates were seeded and were incubated for at least one day. Medium from the plate was removed and replaced with medium containing varying concentrations of drugs, the drugs being dex, aspirin, GTN or a combination of these drugs. The effects of the drugs were analysed after 72 hours with two viability assays: MTT assay and Neutral Red assay. Absorbance values were read from a microplate reader. MTT is a yellow tetrazolium salt taken up into cells. In viable cells, the salt was reduced in cytosol or mitochondria to form blue formazan salt. The formazan product was very insoluble and was disolved in dimethylsulphoxide before its absorbance was calculated. In non-viable cells, there was no reaction and the cells remained yellow. The Neutral Red assay involved adding neutral red solution, a red dye to cells. In viable cells, the dye stained lysosomes. The cells were incubated with neutral red solution for three hours (to enable dye to penetrate cells), a neutral red destain solution was then added to remove the dye. The intensity of the red colour equated to the number of viable cells.

C[C@@H]1C[C@H]2[C@@H]3CCC4=CC(=O)C=C[C@]4(C)[C@@]3(F)[C@@H](O)C[C@]2(C)[C@@]1(O)C(=O)CO [dex, Dexamethasone]
role in the treatment of vascular proliferative disorder (SMC growth inhibition): appear to have a beneficial role
